For 1 compound, activity change, negative = inhibition results are on record in PubChem BioAssay AID1159524 (National Center for Advancing Translational Sciences (NCATS), 2015).

What follows is the remainder of the data, with few or none of the hits. Records with an inconclusive call do not appear. Active and inactive are the calls of the source. Calls follow the shape of the full dose curve; tested in HEK293T cells.
% is scaled to controls: 0 for no effect and ±100 for the full control effect.

The assay is described as follows: High Throughput Screening for Foot and Mouth Disease Virus Antivirals. Also: read-out not given here; nearly all actives have a fitted effect of over 45% in size. Particulars: FMDV antiviral cell-based qHTS; at 57.9 µM (top of the series).
`O=c1ccc2ccc(OCc3ccccc3)cc2o1`: the activity change, negative = inhibition was inactive: 21.1%.
